Measurements reported in PubChem BioAssay AID1508588 (Peter MacCallum Cancer Centre, 2020)

Aim: 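Genome-wide search for knock-downs that heighten vemurafenib action in melanoma cells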 (primary screen)
System: human WM266.4 melanoma cells (BRAF V600 mutant)
Reagent: siRNA pool against human genes, 40 nM
Timing: 96 h from transfection to read-out
Challenge: vemurafenib 300 nM (about IC25), added 48 h after transfection, for 48 h; comparison arm got DMSO vehicle only
Read-out: 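Cell gain (DAPI nuclei at end minus before drug, mean of two replicates) and medium lactate by absorbance per cell, both as ratio to non-targeting siRNA, also grouped into fold-change classes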
Scale: cell gain with vemurafenib: higher = more cell gain than with non-targeting siRNA; lactate per cell with vemurafenib: higher = more lactate made per cell
Hit rule: 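a knock-down counts as enhancing when its fold-change classes with vehicle and with vemurafenib, taken together, show a stronger drug effect on cell gain or lactate per cell; exact class pairs not stated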
Calls: active = enhances vemurafenib effect; inactive = no enhancement seen
The whole screen tested about 18,000 reagents; below is an unselected part. 790 of them (4.4%) count as active. 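Calls rest on a combination of fold-change classes in drug and vehicle arms, not all shown here.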 Unmarked entries are inactive. Reagents against one gene are numbered here. Reagent sequences are not shown.

Gene | reagent | cell gain with vemurafenib | lactate per cell with vemurafenib
RABL6 (RAB, member RAS oncogene family like 6) | 1 | 0.25 | 1.66
XKR5 (XK related 5) | 1 | 1.07 | 0.6
CCDC85A (coiled-coil domain containing 85A) | 1 | 0.96 | 0.92
DGAT1 (diacylglycerol O-acyltransferase 1) | 1 | 0.93 | 0.62
KCTD12 (potassium channel tetramerization domain containing 12) | 1 | 0.08 | 1.89
UGGT2 (UDP-glucose glycoprotein glucosyltransferase 2) | 1 | 0.93 | 1.01
LDLR (low density lipoprotein receptor) | 1 | 0.25 | 0.7
PDE6C (phosphodiesterase 6C) | 1 | 0.68 | 1.56
P4HTM (prolyl 4-hydroxylase, transmembrane) | 1 | 0.89 | 1.07
SIRT3 (sirtuin 3) | 1 | 0.76 | 0.57
PITPNM3 (PITPNM family member 3) | 1 | 0.43 | 1.15
ZFP36L1 (ZFP36 like 1 zinc finger CCCH-type) | 1 | 0.52 | 1.77
RXYLT1 (ribitol xylosyltransferase 1) | 1 | 0.63 | 0.43
RNF187 (ring finger protein 187) | 1 | 0.68 | 0.92
CENPX (centromere protein X) | 1 | 0.76 | 0.87
QRICH1 (glutamine rich 1) | 1 | 0.4 | 1.56
GAGE7 (G antigen 7) | 1 | 1.1 | 0.54
EOMES (eomesodermin) | 1 | 0.74 | 0.48
CTHRC1 (collagen triple helix repeat containing 1) | 1 | 0.55 (active) | 0.18
NOTCH1 (notch receptor 1) | 1 | 1.03 | 1.04
MS4A15 (membrane spanning 4-domains A15) | 1 | 0.78 | 0.97
LAMTOR1 (late endosomal/lysosomal adaptor, MAPK and MTOR activator 1) | 1 | 0.85 | 0.7
MVP (major vault protein) | 1 | 0.02 (active) | 0.34
IPMK (inositol polyphosphate multikinase) | 1 | 0.54 | 1.26
ALAS1 (5'-aminolevulinate synthase 1) | 1 | 0.64 | 1.25
CRISP1 (cysteine rich secretory protein 1) | 1 | 0.19 | 1.61
DNAJA1 (DnaJ heat shock protein family (Hsp40) member A1) | 1 | 0.57 | 0.52
SLC10A2 | 1 | 0.62 | 0.79
SENP7 (SUMO specific peptidase 7) | 1 | 0.35 | 0.61
SELENOS (selenoprotein S) | 1 | 0.66 | 0.89
CDKN2C (cyclin dependent kinase inhibitor 2C) | 1 | 1.08 | 0.86
ISM2 (isthmin 2) | 1 | 0.35 | 0.55
CFAP74 (cilia and flagella associated protein 74) | 1 | 0.92 | 0.83
CFAP74 (cilia and flagella associated protein 74) | 2 | 0.34 | 0.94
